Measured values published in US20140038203A1, “METHODS FOR DETECTING OR PREDICTING KIDNEY DISEASE” (MUSC FOUNDATION FOR RESEARCH DEVELOPMENT, priority 2012, published 2014).

Assay: RRT study: LC-MS/MS urinary proteomics, AKI after cardiac surgery, RRT vs No RRT
Set-up: species or system human
Settings: direction of urinary abundance, patients who did vs did not require RRT/dialysis

Row | Molecule | Up or Down
1 | Matrix-remodeling-associated protein 8 (protein, UniProt Q9BRK3 20-442, looked up) Matrix remodeling-associated …: VLLHSGSSVPAAAGSSVVSESAVSWEAGARAVLRCQSPRMVWTQDRLHDRQRVLHWDLRGPGGGPARRLLDLYSAGEQRVYEARDRGRLELSASAFDDGNFSLLIRAVEETDAGLYTCNLHHHYCHLYESLAVRLEVTDGPPATPAYWDGEKEVLAVARGAPALLTCVNRGHVWTDRHVEEAQQVVHWDRQPPGVPHDRADRLLDLYASGERRAYGPLFLRDRVAVGADAFERGDFSLRIEPLEVADEGTYSCHLHHHYCGLHERRVFHLTVAEPHAEPPPRGSPGNGSSHSGAPGPDPTLARGHNVINVIVPESRAHFFQQLGYVLATLLLFILLLVTVLLAARRRRGGYEYSDQKSGKSKGKDVNLAEFAVAAGDQMLYRSEDIQLDYKNNILKERAELAHSPLPAKYIDLDKGFRKENCK | Up
2 | 5′(3′)-deoxyribonucleotidase, cytosolic type (protein, UniProt Q8TCD5 1-201, looked up) 5'(3')-deoxyribonucleotidase, …: MARSVRVLVDMDGVLADFEAGLLRGFRRRFPEEPHVPLEQRRGFLAREQYRALRPDLADKVASVYEAPGFFLDLEPIPGALDAVREMNDLPDTQVFICTSPLLKYHHCVGEKYRWVEQHLGPQFVERIILTRDKTVVLGDLLIDDKDTVRGQEETPSWEHILFTCCHNRHLVLPPTRRRLLSWSDNWREILDSKRGAAQRE | Up
3 | Neprilysin (protein, UniProt P08473 2-750, looked up) Neprilysin: GKSESQMDITDINTPKPKKKQRWTPLEISLSVLVLLLTIIAVTMIALYATYDDGICKSSDCIKSAARLIQNMDATTEPCTDFFKYACGGWLKRNVIPETSSRYGNFDILRDELEVVLKDVLQEPKTEDIVAVQKAKALYRSCINESAIDSRGGEPLLKLLPDIYGWPVATENWEQKYGASWTAEKAIAQLNSKYGKKVLINLFVGTDDKNSVNHVIHIDQPRLGLPSRDYYECTGIYKEACTAYVDFMISVARLIRQEERLPIDENQLALEMNKVMELEKEIANATAKPEDRNDPMLLYNKMTLAQIQNNFSLEINGKPFSWLNFTNEIMSTVNISITNEEDVVVYAPEYLTKLKPILTKYSARDLQNLMSWRFIMDLVSSLSRTYKESRNAFRKALYGTTSETATWRRCANYVNGNMENAVGRLYVEAAFAGESKHVVEDLIAQIREVFIQTLDDLTWMDAETKKRAEEKALAIKERIGYPDDIVSNDNKLNNEYLELNYKEDEYFENIIQNLKFSQSKQLKKLREKVDKDEWISGAAVVNAFYSSGRNQIVFPAGILQPPFFSAQQSNSLNYGGIGMVIGHEITHGFDDNGRNFNKDGDLVDWWTQQSASNFKEQSQCMVYQYGNFSWDLAGGQHLNGINTLGENIADNGGLGQAYRAYQNYIKKNGEEKLLPGLDLNHKQLFFLNFAQVWCGTYRPEYAVNSIKTDVHSPGNFRIIGTLQNSAEFSEAFHCRKNSYMNPEKKCRVW | Up
4 | Peroxiredoxin-6 (protein, UniProt P30041 2-224, looked up) Peroxiredoxin-6: PGGLLLGDVAPNFEANTTVGRIRFHDFLGDSWGILFSHPRDFTPVCTTELGRAAKLAPEFAKRNVKLIALSIDSVEDHLAWSKDINAYNCEEPTEKLPFPIIDDRNRELAILLGMLDPAEKDEKGMPVTARVVFVFGPDKKLKLSILYPATTGRNFDEILRVVISLQLTAEKRVATPVDWKDGDSVMVLPTIPEEEAKKLFPKGVFTKELPSGKKYLRYTPQP | Up
5 | Ephrin type-B receptor 4 (protein, UniProt P54760 16-987, looked up) Ephrin type-B receptor 4: LEETLLNTKLETADLKWVTFPQVDGQWEELSGLDEEQHSVRTYEVCDVQRAPGQAHWLRTGWVPRRGAVHVYATLRFTMLECLSLPRAGRSCKETFTVFYYESDADTATALTPAWMENPYIKVDTVAAEHLTRKRPGAEATGKVNVKTLRLGPLSKAGFYLAFQDQGACMALLSLHLFYKKCAQLTVNLTRFPETVPRELVVPVAGSCVVDAVPAPGPSPSLYCREDGQWAEQPVTGCSCAPGFEAAEGNTKCRACAQGTFKPLSGEGSCQPCPANSHSNTIGSAVCQCRVGYFRARTDPRGAPCTTPPSAPRSVVSRLNGSSLHLEWSAPLESGGREDLTYALRCRECRPGGSCAPCGGDLTFDPGPRDLVEPWVVVRGLRPDFTYTFEVTALNGVSSLATGPVPFEPVNVTTDREVPPAVSDIRVTRSSPSSLSLAWAVPRAPSGAVLDYEVKYHEKGAEGPSSVRFLKTSENRAELRGLKRGASYLVQVRARSEAGYGPFGQEHHSQTQLDESEGWREQLALIAGTAVVGVVLVLVVIVVAVLCLRKQSNGREAEYSDKHGQYLIGHGTKVYIDPFTYEDPNEAVREFAKEIDVSYVKIEEVIGAGEFGEVCRGRLKAPGKKESCVAIKTLKGGYTERQRREFLSEASIMGQFEHPNIIRLEGVVTNSMPVMILTEFMENGALDSFLRLNDGQFTVIQLVGMLRGIASGMRYLAEMSYVHRDLAARNILVNSNLVCKVSDFGLSRFLEENSSDPTYTSSLGGKIPIRWTAPEAIAFRKFTSASDAWSYGIVMWEVMSFGERPYWDMSNQDVINAIEQDYRLPPPPDCPTSLHQLMLDCWQKDRNARPRFPQVVSALDKMIRNPASLKIVARENGGASHPLLDQRQPHYSAFGSVGEWLRAIKMGRYEESFAAAGFGSFELVSQISAEDLLRIGVTLAGHQKKILASVQHMKSQAKPGTPGGTGGPAPQY | Up
6 | Cytosolic non-specific dipeptidase (protein, UniProt Q96KP4 2-475, looked up) Cytosolic non-specific …: AALTTLFKYIDENQDRYIKKLAKWVAIQSVSAWPEKRGEIRRMMEVAAADVKQLGGSVELVDIGKQKLPDGSEIPLPPILLGRLGSDPQKKTVCIYGHLDVQPAALEDGWDSEPFTLVERDGKLYGRGSTDDKGPVAGWINALEAYQKTGQEIPVNVRFCLEGMEESGSEGLDELIFARKDTFFKDVDYVCISDNYWLGKKKPCITYGLRGICYFFIEVECSNKDLHSGVYGGSVHEAMTDLILLMGSLVDKRGNILIPGINEAVAAVTEEEHKLYDDIDFDIEEFAKDVGAQILLHSHKKDILMHRWRYPSLSLHGIEGAFSGSGAKTVIPRKVVGKFSIRLVPNMTPEVVGEQVTSYLTKKFAELRSPNEFKVYMGHGGKPWVSDFSHPHYLAGRRAMKTVFGVEPDLTREGGSIPVTLTFQEATGKNVMLLPVGSADDGAHSQNEKLNRYNYIEGTKMLAAYLYEVSQLKD | Up
7 | Fructose-1,6-bisphosphatase 1 (protein, UniProt P09467 2-338, looked up) Fructose-1,6-bisphosphatase 1: ADQAPFDTDVNTLTRFVMEEGRKARGTGELTQLLNSLCTAVKAISSAVRKAGIAHLYGIAGSTNVTGDQVKKLDVLSNDLVMNMLKSSFATCVLVSEEDKHAIIVEPEKRGKYVVCFDPLDGSSNIDCLVSVGTIFGIYRKKSTDEPSEKDALQPGRNLVAAGYALYGSATMLVLAMDCGVNCFMLDPAIGEFILVDKDVKIKKKGKIYSLNEGYARDFDPAVTEYIQRKKFPPDNSAPYGARYVGSMVADVHRTLVYGGIFLYPANKKSPNGKLRLLYECNPMAYVMEKAGGMATTGKEAVLDVIPTDIHQRAPVILGSPDDVLEFLKVYEKHSAQ | Up
8 | Di-N-acetylchitobiase (protein, UniProt Q01459 39-385, looked up) Di-N-acetylchitobiase: TDCPCPEPELCRPIRHHPDFEVFVFDVGQKTWKSYDWSQITTVATFGKYDSELMCYAHSKGARVVLKGDVSLKDIIDPAFRASWIAQKLNLAKTQYMDGINIDIEQEVNCLSPEYDALTALVKETTDSFHREIEGSQVTFDVAWSPKNIDRRCYNYTGIADACDFLFVMSYDEQSQIWSECIAAANAPYNQTLTGYNDYIKMSINPKKLVMGVPWYGYDYTCLNLSEDHVCTIAKVPFRGAPCSDAAGRQVPYKTIMKQINSSISGNLWDKDQRAPYYNYKDPAGHFHQVWYDNPQSISLKATYIQNYRLRGIGMWNANCLDYSGDAVAKQQTEEMWEVLKPKLLQR | Up
9 | CMRF35-like molecule 1 (protein, UniProt Q8TDQ1 20-290, looked up) CMRF35-like molecule 1: TQITGPTTVNGLERGSLTVQCVYRSGWETYLKWWCRGAIWRDCKILVKTSGSEQEVKRDRVSIKDNQKNRTFTVTMEDLMKTDADTYWCGIEKTGNDLGVTVQVTIDPAPVTQEETSSSPTLTGHHLDNRHKLLKLSVLLPLIFTILLLLLVAASLLAWRMMKYQQKAAGMSPEQVLQPLEGDLCYADLTLQLAGTSPQKATTKLSSAQVDQVEVEYVTMASLPKEDISYASLTLGAEDQEPTYCNMGHLSSHLPGRGPEEPTEYSTISRP | Up
